The results in this text go back to patent US20200010563A1 (PROTHENA BIOSCIENCES, published 2020).

In experiment [1] the target is T1, human MCAM protein (form in the assay not stated) (human) (UniProt P43121).
T1 sequence: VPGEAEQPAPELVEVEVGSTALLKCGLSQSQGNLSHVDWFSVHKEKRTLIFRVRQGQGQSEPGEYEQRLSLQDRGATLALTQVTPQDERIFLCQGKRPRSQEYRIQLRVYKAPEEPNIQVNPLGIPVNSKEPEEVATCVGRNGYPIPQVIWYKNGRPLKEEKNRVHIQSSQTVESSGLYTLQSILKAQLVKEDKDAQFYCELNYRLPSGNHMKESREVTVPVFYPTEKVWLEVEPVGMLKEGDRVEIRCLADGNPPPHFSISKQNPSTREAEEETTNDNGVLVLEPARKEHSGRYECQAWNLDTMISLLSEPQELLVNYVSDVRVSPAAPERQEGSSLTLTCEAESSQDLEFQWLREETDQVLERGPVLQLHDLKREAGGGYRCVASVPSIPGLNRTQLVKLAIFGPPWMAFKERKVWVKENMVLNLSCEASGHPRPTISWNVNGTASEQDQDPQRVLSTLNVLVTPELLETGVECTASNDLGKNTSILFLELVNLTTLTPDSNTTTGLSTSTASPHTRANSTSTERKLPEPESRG
The experiment can be described thus: BLI (ForteBio Octet QK); antigen not named. A general note: In BLI a coated tip is dipped into the sample, and binding shifts an interference pattern.

The target in experiment [2] is T1, human MCAM protein (form in the assay not stated) (human). The experiment can be described thus: summary of Examples 2-3.
For experiment [3], the target named is T2, combination of human MCAM domains 1 and 2 (amino acids 19-242) hFc construct (human) (UniProt P43121).
T2 sequence: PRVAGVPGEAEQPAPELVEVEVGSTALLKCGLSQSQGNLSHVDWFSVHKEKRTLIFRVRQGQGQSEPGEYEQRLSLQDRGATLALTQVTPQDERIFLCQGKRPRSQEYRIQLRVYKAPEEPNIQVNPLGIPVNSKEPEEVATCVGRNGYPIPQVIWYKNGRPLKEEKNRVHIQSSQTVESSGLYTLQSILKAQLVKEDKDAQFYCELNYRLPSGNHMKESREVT
The experiment can be described thus: ForteBio BLI, MCAMhFc domains on anti-human IgG Fc sensors, antibody 5 ug/ml.

Experiment [4] concerns the target T3, human MCAM expressed on transfected CHO cells (human) (UniProt P43121).
T3 sequence: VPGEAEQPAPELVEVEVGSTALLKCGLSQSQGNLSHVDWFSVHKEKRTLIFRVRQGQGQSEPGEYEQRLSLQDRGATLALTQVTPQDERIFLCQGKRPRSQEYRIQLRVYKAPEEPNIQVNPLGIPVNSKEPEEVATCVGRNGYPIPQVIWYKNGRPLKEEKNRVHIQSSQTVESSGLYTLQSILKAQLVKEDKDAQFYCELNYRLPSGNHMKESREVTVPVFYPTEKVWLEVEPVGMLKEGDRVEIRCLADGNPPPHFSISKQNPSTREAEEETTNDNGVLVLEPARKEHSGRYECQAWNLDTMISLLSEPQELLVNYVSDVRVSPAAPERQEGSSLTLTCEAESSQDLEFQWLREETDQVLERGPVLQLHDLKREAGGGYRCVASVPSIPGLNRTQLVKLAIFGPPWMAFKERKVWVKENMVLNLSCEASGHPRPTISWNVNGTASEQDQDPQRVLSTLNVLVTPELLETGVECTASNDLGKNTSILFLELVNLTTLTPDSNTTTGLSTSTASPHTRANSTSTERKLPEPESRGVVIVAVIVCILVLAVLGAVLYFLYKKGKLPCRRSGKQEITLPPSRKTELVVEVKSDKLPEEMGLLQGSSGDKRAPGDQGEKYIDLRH
Kind of experiment: affinity experiments, data not shown; human MCAM on the surface of living cells.

Results are given in words; binding and its absence hold for the method and conditions named. Some entries that bind do so weakly or less than the wild type.

B1: humanized 1749 antibody hu1749VH3VL3 (Hu1749VHv3 and Hu1749VLv3) (antibody, V domains shown)
VH: EVKLVESGGGLVQPGGSLRLSCAASGFTFSSYIMSWVRQTPEKRLEWVATISSGGSSTYYPDSVKGRFTISRDNAKNTLYLQMSSLKSEDTAMYYCTRDDDYDVKVFAYWGQGTLVTVSS
VL: DIVMTQSPSSLAVSLGERVTINCKSSRSLLNSRIRKNYLAWYQQKPGQSPKLLIYWASTRESGVPDRFSGSGSGTDFTLTISSLQAEDVAVYYCKQSYNLLTFGQGTKVEIKR
In the case of B1, the binding entry in experiment [1] is on record as “binds”.

B2: rat anti-human MCAM monoclonal antibody clone 2107.4.10 (antibody, V domains shown)
VH: QVQLKESGPGLVQSSQTLSLTCTVSGFSLTSNGVSWVRQPPGKGLEWIAAISSGGSTYYNSAFKSRLSISRNTSKSQVLLKMNSLQTEDTGMYFCARHRPFYFDYWGQGVMVTVSS
VL: DIQVTQSPSLLSASVGDRVTLNCKGSQNIYKSLAWFRLKRGEAPKLLIYDANSLQTGIPSRFSGSGSGTDFTLTITSLQPEDVATYFCQQYYSGYTFGAGTKLELK
As to B2, the binding result in experiment [2], in experiment [3] and in experiment [4] was “binds” throughout.

B3: mouse anti-human MCAM monoclonal antibody clone 1174.1.3 (antibody, V domains shown)
VH: QIQLVQSGPELKKPGETVKISCKASGYTFTNYGMNWVKQAPGKGLKWMGWINTYTGEPTYADDFKGRFALSLETSASTAYLQINNLKNEDMATYFCARYRYNKYERAMDYWGQGTSVTVSS
VL: DIVLTQSPASLAVSLGQRATISCRASKSVSTSGYSYMYWYQQKPGQPPKLLIYLASNLESGVPARFSGSGSGTDFTLNIHPVEEEDAATYYCQHSRELPFTFGSGTKLEIK
notes: Mouse hybridoma monoclonal
Regarding B3, the binding result in experiment [2] and in experiment [4] was “binds” in each case.

B4: rat anti-human MCAM monoclonal antibody clone 2120.4.19 (antibody, V domains shown)
VH: QVQLKESGPGLVQPSQTLSLTCTVSGFSLTSNGVSWVRQPPGKGLEWIAAISSGGTTYYNSAFKSRLSISRNTSKSQVLLKMNSLQTEDTAMYFCARRYGYGWYFDFWGPGTMVTVSS
VL: DIRMTQSPSLLSASVGDRVTLNCKASQNIYNSLAWYQQKLGEGPKVLIFNANSLQTGIPSRFSGSGSGTDFTLTISSLQPEDFATYFCQQFYSGYTFGAGTKLELK
For the molecule B4, the binding result in experiment [2], in experiment [3] and in experiment [4] was “binds” throughout.

B5: mouse anti-human MCAM monoclonal antibody clone 1414.1.2 (antibody, V domains shown)
VH: EIQLQQTGPELVKPGASVKISCKASGYSFTDYIMLWVKQSHGKSLEWIGNINPYSGSSGYNLKFKGKATLTVDKSSSTAYMQLNSLTSEDSAVYYCARGKDFAMDYWGQGTSVTVSS
VL: DIVMSQSPSSLAVSAGEKVTMSCKSSQSLLNSSTRKNFLAWYQQKPGQSPKLLIYWASTRESGVPDRFTGSGSGTDFTLTISSVQAEDLAVYYCKQSYNRYTFGGGTKLEIK
notes: Mouse hybridoma monoclonal
As for B5, the binding result in experiment [2] and in experiment [4] was “binds” each time.

B6: mouse anti-human MCAM monoclonal antibody clone 1749.1.3 (antibody, V domains shown)
VH: DVKLVESGGDLVKPGGSLKLSCAASGFTFSSYIMSWVRQTPEKRLEWVATISSGGSSTYYPDSVKGRFTISRDNAKNTLYLQMSSLKSEDTAMYYCTRDDDYDVKVFAYWGQGTLVTVSA
VL: DIVMSQSPSSLAVSAGEKVTMNCKSSRSLLNSRIRKNYLAWYQQKPGQSPKLLIYWASTRESGVPDRFTGSGSGTDFTLTISSVQAEDLAVYYCKQSYNLLTFGAGTKLELK
notes: Mouse hybridoma monoclonal; also called m1749
In the case of B6, the binding entry in experiment [2] and in experiment [4] was “binds” each time.

B7: mouse anti-human MCAM monoclonal antibody clone 1415.1.1 (antibody, V domains shown)
VH: QVQLQQPGAELVQPGAPVKLSCKASGYIFTSYWMNWVKQRPGRGLEWIGRIDPSDSKIHYNQKFKDKATLTVDRSSSTAYIQLGSLTSEDSAVYYCAKEGGLRRGDYAMDYWGQGTSVTVSS
VL: DIVMTQSPATLSVTPGDRVSLSCRASQSISDYLHWYQQKSHESPRLLIKYASQSISGIPSRFSGSGSGSDFTLSINSVEPEDVGVYYCQNGHNFPRTFGGGTKLEIK
notes: Mouse hybridoma monoclonal
With B7, the binding result in experiment [2] and in experiment [4] was “binds” in each case.
